From ChEMBL document CHEMBL4359831, “Chemoproteomics of an Indole-Based Quinone Epoxide Identifies Druggable Vulnerabilities in Vancomycin-Resistant Staphylococcus aureus” (J Med Chem, 2019) come the findings set out here.

Values after ≈ are worked out from the molar mass of the structure shown.

The assay deals with Enterococcus faecalis. Description: Antibacterial activity against Enterococcus faecalis B3119 after 16 to 18 hrs by CLSI M07-A10 protocol based dilution method. In kind it is functional.

Regarding `CN[C@H](CC(C)C)C(=O)N[C@H]1C(=O)N[C@@H](CC(N)=O)C(=O)N[C@H]2C(=O)N[C@H]3C(=O)N[C@H](C(=O)N[C@H](C(=O)O)c4cc(O)cc(O)c4-c4cc3ccc4O)[C@H](O)c3ccc(c(Cl)c3)Oc3cc2cc(c3O[C@@H]2O[C@H](CO)[C@@H](O)[C@H](O)[C@H]2O[C@H]2C[C@](C)(N)[C@H](O)[C@H](C)O2)Oc2ccc(cc2Cl)[C@H]1O` [VANCOMYCIN], the MIC (usually the lowest concentration found to suppress growth) came to 0.5 µg/mL (≈ 0.345 µM).
